Literature values, collected in US20230126411A1, “DEUTERIUM MAGNETIC RESONANCE IMAGING” (University of Florida Research Foundation, Inc., priority 2020, published 2023).

Conditions: De Feyter et al., cited from earlier work

OCC1OC(O)C(O)C(O)C1O (centres unmarked) [[6,6-^2H2]glucose]
loss of 2H atoms for 2H-lactate ([6,6-2H2]glucose as tracer): ~8%
maximum share of HDO generation due to keto-enol tautomerization ([6,6-2H2]glucose): ≤ 8%
